Our source for the binding signal values is PMC7819943, “Rice protein-binding microarrays: a tool to detect cis-acting elements near promoter regions in rice”.

Amino acid sequences for entries named in this document (tags omitted).
UniProt Q0JBA9, entry or part of it: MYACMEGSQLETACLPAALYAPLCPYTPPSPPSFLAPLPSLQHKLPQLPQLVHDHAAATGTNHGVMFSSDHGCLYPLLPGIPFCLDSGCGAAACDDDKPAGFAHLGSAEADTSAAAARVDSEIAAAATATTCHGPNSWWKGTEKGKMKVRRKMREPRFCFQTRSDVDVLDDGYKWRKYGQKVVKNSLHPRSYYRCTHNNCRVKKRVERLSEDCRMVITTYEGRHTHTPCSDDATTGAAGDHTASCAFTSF

The other results are listed elsewhere or left out.

The target of this assay is OsWRKY34 (Oryza sativa, UniProt Q0JBA9 1-250). Put plainly: protein-binding microarray (RPBM); PBS, 2% BSA, 51.3 ng/ul salmon testes DNA, 50 uM zinc acetate, 200 nM TF, 25 C, 1 h; high values mean tight binding. The note with it: protein: recombinant; tags: N-terminal polyhistidine and DsRed monomer fusion (pET32a); label: CyDye5-dUTP incorporated in the synthesized complementary strand; 3' TTTTT single-stranded linker to array surface; dsDNA, one strand shown. The gist of the method:
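Transcription factors, each fused N-terminally to a polyhistidine tag and DsRed, were expressed in E. coli BL21-CodonPlus and purified on Ni–NTA. A custom Agilent array was made double-stranded by primer extension with Cy5-dUTP and blocked with 2% BSA. It was incubated with 200 nM protein in PBS, 2% BSA, salmon testes DNA and 50 µM zinc acetate at 25 °C for 1 h, then washed. The binding signal is per-feature fluorescence intensity (arbitrary units) read on an Axon 4000B scanner.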
For “CGAACCAAGACAAGAAAATAGAACCATCCTATCTATCAGGCGGAGTCACCTAGTGCAG”, the binding signal was 11500 fluorescence intensity (a.u.).

With “ATCACCACACAACCAATCGGCTGCACGATGCAATCAAACTCGGAGTCACCTAGTGCAG”, the binding signal is 8030 fluorescence intensity (a.u.).

On to “GAGCTTTGAATGCCAATCTTCACCACCATAGTAGTACTATCGGAGTCACCTAGTGCAG”, for which the binding signal is 8470 fluorescence intensity (a.u.).

With “TCTTTTTTTTTGATTTGTTATTTCACTTGCGCCAGATTTTCGGAGTCACCTAGTGCAG”, the binding signal was 11400 fluorescence intensity (a.u.).

As to “CAAAATCCAGCGGTGGGACGTTCTCGGGGTATACTTTCATCGGAGTCACCTAGTGCAG”, the binding signal is 9440 fluorescence intensity (a.u.).

Turning to “ACTCCCAACTTTCATACCGAAAATTTTATCTTCAAACTATCGGAGTCACCTAGTGCAG”, the binding signal is 10200 fluorescence intensity (a.u.).

Regarding “ATGAGTTCTACGACGTTCTTATTGACTAGTCCATCGTTCCCGGAGTCACCTAGTGCAG”, the binding signal was 9500 fluorescence intensity (a.u.).

Turning to “AGCCTATTTTGCCTCCGTCTCCTCTTGTCCCTGGACGAATCGGAGTCACCTAGTGCAG”, the binding signal was 9560 fluorescence intensity (a.u.).

On to “CCCCGACGACCAACTGCTCTCAAAACTGAACTCCTCACCTCGGAGTCACCTAGTGCAG”, for which the binding signal was 10600 fluorescence intensity (a.u.).

As to “TCTTTCTTCCATTGCACCTAGCTTTCATCTTCTTCTCTTCCGGAGTCACCTAGTGCAG”, the binding signal was 14200 fluorescence intensity (a.u.).

Consider “ATAAATTTAGTCAAACTTGAAACAATTTAACTTTGGCTAACGGAGTCACCTAGTGCAG”, for which the binding signal is 8920 fluorescence intensity (a.u.).

For the sequence “CCGTCGTGCTGCGCCCTTCAATTTGTTGGTCTCGCTCGCCCGGAGTCACCTAGTGCAG”, the binding signal was 8490 fluorescence intensity (a.u.).

As to “CCTGATTTGGAGGTTTTGTTGGGTGCAGACCATTCAGGGGCGGAGTCACCTAGTGCAG”, the binding signal is 8290 fluorescence intensity (a.u.).

Turning to “CGATGACAAGTTGACGCACCTTGGGTGTACTTTTTCCTTCCGGAGTCACCTAGTGCAG”, the binding signal is 8280 fluorescence intensity (a.u.).

“ATGTCTCACAACGTTCATGTATTCCACCCAGGGCCCAGTTCGGAGTCACCTAGTGCAG”: the binding signal was 8300 fluorescence intensity (a.u.).

On to “CTTTTTCTTGTCCTTTTTCTTATTGCGCTGCTCAGTTGCTCGGAGTCACCTAGTGCAG”, for which the binding signal was 10000 fluorescence intensity (a.u.).

“TCATTTATTTTCCAGTTCCGCCTCCGTTTCAACCCTCTCTCGGAGTCACCTAGTGCAG”: the binding signal was 9010 fluorescence intensity (a.u.).

On to “CCGTTCTCTGCTGCTACATCTCGTCGCCTCGCCGGCGCCACGGAGTCACCTAGTGCAG”, for which the binding signal was 12300 fluorescence intensity (a.u.).

With “TTTTCCTATTTTTTCTTGTAGCGAAGTCCACTAAATTTAACGGAGTCACCTAGTGCAG”, the binding signal is 10800 fluorescence intensity (a.u.).

For the sequence “CACCAAACCACCACCACTCTCCTCGGCTTGTGTCGCGTGTCGGAGTCACCTAGTGCAG”, the binding signal is 11300 fluorescence intensity (a.u.).

As to “GTTCCATATTACTTGTCGCTTTGAGTTTTTTTAAAAAAAACGGAGTCACCTAGTGCAG”, the binding signal was 10500 fluorescence intensity (a.u.).

With “TCCTTGCGGTGCTCATGCTTTCCCTTCTTAGGTGTCGCGTCGGAGTCACCTAGTGCAG”, the binding signal is 8210 fluorescence intensity (a.u.).

With “CTCTCTCCATTCCATTTTAAGTTTTTATATACAACGTTTACGGAGTCACCTAGTGCAG”, the binding signal is 8950 fluorescence intensity (a.u.).

For “TTTTTTCTTACACTATTTTACCACTCGTCTTATTTAAAAACGGAGTCACCTAGTGCAG”, the binding signal is 8100 fluorescence intensity (a.u.).

In the case of “TCGGTTTCCGCTTTCCATGCCGCGATCGCCATTTGTTTTTCGGAGTCACCTAGTGCAG”, the binding signal was 10800 fluorescence intensity (a.u.).

In the case of “GCTTTCCGATCGTTTCCCGGCTCCATCCAATCCACTAGTTCGGAGTCACCTAGTGCAG”, the binding signal is 10700 fluorescence intensity (a.u.).

Take “CCGTCGTCTATCTGTCTGCAGGTTATCTGCGTCGTCGTCTCGGAGTCACCTAGTGCAG”: the binding signal is 8320 fluorescence intensity (a.u.).

“ACATAACACACCCGCTCAACATGACCGCGGCGCGTCCCTTCGGAGTCACCTAGTGCAG”: the binding signal was 9180 fluorescence intensity (a.u.).

For “CCATTTTACTTTCTTAGGCTCTCTTACCATTGTCCCTACTCGGAGTCACCTAGTGCAG”, the binding signal is 12800 fluorescence intensity (a.u.).

As for “TGCTAATGGCCTGCTCCGTTTTCCGTGCCAGAGGGGTTATCGGAGTCACCTAGTGCAG”, the binding signal is 13500 fluorescence intensity (a.u.).

In the case of “AGAACCATTGGCCCCACCTGCCAGCCACCATCCCCATATCCGGAGTCACCTAGTGCAG”, the binding signal is 8820 fluorescence intensity (a.u.).

As for “TACTCTGCTCGATCGAATCGCTAGCTTTCTTCTTCTTCTTCGGAGTCACCTAGTGCAG”, the binding signal is 13600 fluorescence intensity (a.u.).

With “GGACCTACCCAAGTACGTGGACCCGCTGCCGCAGATGGCCCGGAGTCACCTAGTGCAG”, the binding signal was 8760 fluorescence intensity (a.u.).

For the sequence “TGTCAATTTTCTCACTCTAAAGAGTCCCTTTCAGTACAGTCGGAGTCACCTAGTGCAG”, the binding signal is 8100 fluorescence intensity (a.u.).

Consider “TCATCCCTTTCCAAACATTGCCAGACTGCCTAACTGTACACGGAGTCACCTAGTGCAG”, for which the binding signal was 8160 fluorescence intensity (a.u.).

For “AAAACAACAAGAGGACGCGAGGGGTCGGGGTGGGAGAGGGCGGAGTCACCTAGTGCAG”, the binding signal was 9940 fluorescence intensity (a.u.).

In the case of “CGCACGCACGCACCGTCCTCGCGCCGGCTGCCCAACCCAACGGAGTCACCTAGTGCAG”, the binding signal is 8960 fluorescence intensity (a.u.).

In the case of “CTCATTTTAGTTGGTCAATGTCTTTTGTTAAGTCTTGAAACGGAGTCACCTAGTGCAG”, the binding signal is 8540 fluorescence intensity (a.u.).

As to “ACCGCTCCCGCCACCGCCACCCTCTCCCTCGTCGCATCGCCGGAGTCACCTAGTGCAG”, the binding signal is 8270 fluorescence intensity (a.u.).

With “ATTGGCACGCTATATGTCATCTCTGGGGTTGGTGGTAGCTCGGAGTCACCTAGTGCAG”, the binding signal was 10700 fluorescence intensity (a.u.).

As for “CATGCTAGTGGGCCCACATTTTTTTTTGTGTGAATGACTACGGAGTCACCTAGTGCAG”, the binding signal was 8360 fluorescence intensity (a.u.).

As to “CGCGTTTGTCAGATACCTAATTCGCCATGTCTTTCCTTTACGGAGTCACCTAGTGCAG”, the binding signal was 10400 fluorescence intensity (a.u.).
